Source: patent publication US20150250714A1, “PHARMACEUTICAL COMPOSITIONS AND DELIVERY DEVICES COMPRISING STINGING CELLS OR CAPSULES” (NANOCYTE (ISRAEL) LTD., priority 2010, published 2015)
“And” between values parts separate entries of the source, which are not always exact repeats. Equal values may be shown once. Read-outs that look alike come from different tables or passages of the source.

Key:
[1] = in vivo; details: white Landrance, pig, plasma, topical or ocular, 5 % scopolamine HBr solution on 15 cm^2 (volume not stated), group mean; for Cmax: peak plasma concentration (Cmax), 5-minute topical application
[2] = 5-minute topical application, plasma
[3] = Control (gel only + scopolamine), individual pigs 3A-1A
[4] = Test-cnidocyst preparation, individual pigs 7A-4A

## CN1[C@@H]2C[C@@H](OC(=O)[C@H](CO)c3ccccc3)C[C@H]1[C@@H]1O[C@@H]12 [scopolamine]
[1]; Cnidocysts-recipient animals
  Cmax: 0.5 ± 0.258 ng/mL
[1]; control animals (gel and scopolamine only)
  Cmax: 0.107 ± 0.061 ng/mL
[1]; time to maximal concentration (Tmax), control animals (gel and scopolamine only)
  Tmax: 2.7 ± 1.5 h
[2]; [3]
  AUC0-24: 816.1 hrX{pcg/ml} and 911.5 hrX{pcg/ml} and 1191.5 hrX{pcg/ml}
  AUCINF: 946.5 hrX{pcg/ml} and 1028.7 hrX{pcg/ml} and 1316.9 hrX{pcg/ml}
  Cmax: 148.4 {pcg/ml} and 98.4 {pcg/ml} and 155 {pcg/ml}
[2]; [4]
  AUC0-24: 1155.3 hrX{pcg/ml} and 970.1 hrX{pcg/ml} and 2488.9 hrX{pcg/ml} and 1973.0 hrX{pcg/ml}
  AUCINF: 1289.9 hrX{pcg/ml} and 1093.1 hrX{pcg/ml} and 2628.7 hrX{pcg/ml} and 2320.8 hrX{pcg/ml}
  Cmax: 486.6 {pcg/ml} and 239.5 {pcg/ml} and 855.3 {pcg/ml} and 419.5 {pcg/ml}
